These are yes or no findings as the source states them, for the method shown. In cells and extracts the contact can be indirect. Some binding calls cover weakened binding; strength is not graded here. Where a sequence is shown, tags or fusion partners need not be part of it.
Target: T1, FLAG-tagged ATG9B (UniProt Q674R7)
T1 sequence: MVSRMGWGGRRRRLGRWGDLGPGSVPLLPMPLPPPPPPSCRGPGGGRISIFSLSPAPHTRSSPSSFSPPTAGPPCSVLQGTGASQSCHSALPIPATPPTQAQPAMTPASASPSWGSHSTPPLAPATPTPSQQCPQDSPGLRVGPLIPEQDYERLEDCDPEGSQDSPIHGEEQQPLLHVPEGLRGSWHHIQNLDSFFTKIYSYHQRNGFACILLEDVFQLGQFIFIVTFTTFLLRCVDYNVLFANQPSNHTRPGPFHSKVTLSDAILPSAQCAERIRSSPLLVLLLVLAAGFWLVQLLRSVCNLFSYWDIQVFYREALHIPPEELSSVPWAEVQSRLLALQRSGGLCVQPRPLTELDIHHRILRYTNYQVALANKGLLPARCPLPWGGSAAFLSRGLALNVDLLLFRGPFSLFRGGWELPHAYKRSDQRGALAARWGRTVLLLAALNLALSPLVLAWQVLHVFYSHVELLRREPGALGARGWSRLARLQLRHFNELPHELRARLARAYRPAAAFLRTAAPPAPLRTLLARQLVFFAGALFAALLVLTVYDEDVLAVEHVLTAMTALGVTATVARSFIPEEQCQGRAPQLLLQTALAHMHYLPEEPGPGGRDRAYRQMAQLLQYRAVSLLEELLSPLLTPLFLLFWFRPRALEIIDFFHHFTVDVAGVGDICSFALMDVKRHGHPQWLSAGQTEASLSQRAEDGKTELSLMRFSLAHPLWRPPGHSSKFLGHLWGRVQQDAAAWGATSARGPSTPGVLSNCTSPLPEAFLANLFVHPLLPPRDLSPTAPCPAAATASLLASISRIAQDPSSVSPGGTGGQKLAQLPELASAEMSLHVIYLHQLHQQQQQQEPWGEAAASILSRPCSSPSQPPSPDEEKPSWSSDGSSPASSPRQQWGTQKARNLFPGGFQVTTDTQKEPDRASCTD
Assay: co-IP; HEK293T cells transfected with FLAG- and mClover-tagged plasmids; lysis in 10 mM Tris-HCl pH 8.0, 150 mM NaCl, 10 mM MgCl2, 1 mM EDTA, 1% Triton X-100; anti-FLAG antibody 2 h at 4°C, Protein G Sepharose 4B 1 h; five washes; immunoblotting

Chains of the proteins cited; added tags and fusions are not shown.
UniProt P60953: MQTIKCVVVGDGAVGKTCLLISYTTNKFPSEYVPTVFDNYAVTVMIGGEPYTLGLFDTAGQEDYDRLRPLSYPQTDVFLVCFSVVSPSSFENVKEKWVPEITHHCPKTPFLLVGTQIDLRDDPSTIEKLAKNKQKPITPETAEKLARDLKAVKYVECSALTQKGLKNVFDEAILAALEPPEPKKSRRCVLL
UniProt P61586: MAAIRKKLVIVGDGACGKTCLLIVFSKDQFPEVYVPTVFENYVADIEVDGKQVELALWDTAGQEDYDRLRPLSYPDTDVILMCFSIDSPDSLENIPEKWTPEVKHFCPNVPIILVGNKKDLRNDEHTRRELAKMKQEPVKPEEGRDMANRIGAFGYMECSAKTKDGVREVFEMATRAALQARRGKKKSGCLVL

binding	Substance
binds	mClover-tagged Cdc42 (from UniProt P60953 1-191)
binds	mClover-tagged RhoA (from UniProt P61586 1-193)

Reference: PMC11066431
